No constants are given. Whether binding was seen depends on the method and setting. In cells and extracts the contact can be indirect. Some results given as binding are weak or reduced against the parent protein; the word gives no strength.
Columns and labels:
[1] = molecular target: Wwp2 (WW domain-containing protein 2), full-length, flag- or myc-tagged (mouse) (UniProt Q9DBH0); experiment: co-IP; HEK293T cells transfected with plasmids and treated with MG132 (10 uM, 7 h); lysis buffer 25 mM Tris/HCl pH 7.4, 150 mM NaCl, 1% NP-40, 1 mM EDTA, 5% glycerol; lysates treated with anti-myc-tag antibody and protein A; western blot
[2] = molecular target: myc-Wwp2 transduced into the ATDC5 chondrogenic cell line (mouse) (UniProt Q9DBH0); experiment: co-IP; ATDC5 cells transduced with retroviral myc-Wwp2; anti-myc-tag antibody; endogenous Runx2 detected by western blot

By UniProt entry, the sequences of proteins in these tests, tags left out. Where a name states a change or a piece, a line headed by the entry shows the natural chain unless it says otherwise. Chains listed by the source or under a name are the forms on record and can include a tag or linker. Residues count along the entry.
UniProt Q9DBH0: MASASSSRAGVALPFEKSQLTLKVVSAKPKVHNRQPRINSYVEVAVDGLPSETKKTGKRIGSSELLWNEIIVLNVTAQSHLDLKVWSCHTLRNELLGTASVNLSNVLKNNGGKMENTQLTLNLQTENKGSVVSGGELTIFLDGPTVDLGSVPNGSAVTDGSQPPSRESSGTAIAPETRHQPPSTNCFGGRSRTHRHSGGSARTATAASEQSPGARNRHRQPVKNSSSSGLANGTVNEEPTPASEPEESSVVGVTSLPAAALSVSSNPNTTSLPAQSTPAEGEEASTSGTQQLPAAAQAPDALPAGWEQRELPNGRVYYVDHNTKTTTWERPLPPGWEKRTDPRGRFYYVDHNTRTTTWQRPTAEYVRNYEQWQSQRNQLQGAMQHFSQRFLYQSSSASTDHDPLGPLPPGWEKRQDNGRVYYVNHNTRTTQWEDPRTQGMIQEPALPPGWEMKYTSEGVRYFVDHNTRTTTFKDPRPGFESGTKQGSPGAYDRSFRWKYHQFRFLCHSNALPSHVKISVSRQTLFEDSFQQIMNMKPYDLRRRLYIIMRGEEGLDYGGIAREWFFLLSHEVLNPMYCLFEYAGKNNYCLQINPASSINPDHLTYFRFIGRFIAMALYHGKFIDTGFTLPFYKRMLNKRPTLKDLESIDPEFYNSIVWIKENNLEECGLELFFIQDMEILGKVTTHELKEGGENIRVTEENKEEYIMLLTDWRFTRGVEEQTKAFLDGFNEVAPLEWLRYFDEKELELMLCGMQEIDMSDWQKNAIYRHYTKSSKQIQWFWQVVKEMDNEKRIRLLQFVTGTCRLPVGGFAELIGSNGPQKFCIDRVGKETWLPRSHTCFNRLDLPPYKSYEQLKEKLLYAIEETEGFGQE
UniProt Q08775: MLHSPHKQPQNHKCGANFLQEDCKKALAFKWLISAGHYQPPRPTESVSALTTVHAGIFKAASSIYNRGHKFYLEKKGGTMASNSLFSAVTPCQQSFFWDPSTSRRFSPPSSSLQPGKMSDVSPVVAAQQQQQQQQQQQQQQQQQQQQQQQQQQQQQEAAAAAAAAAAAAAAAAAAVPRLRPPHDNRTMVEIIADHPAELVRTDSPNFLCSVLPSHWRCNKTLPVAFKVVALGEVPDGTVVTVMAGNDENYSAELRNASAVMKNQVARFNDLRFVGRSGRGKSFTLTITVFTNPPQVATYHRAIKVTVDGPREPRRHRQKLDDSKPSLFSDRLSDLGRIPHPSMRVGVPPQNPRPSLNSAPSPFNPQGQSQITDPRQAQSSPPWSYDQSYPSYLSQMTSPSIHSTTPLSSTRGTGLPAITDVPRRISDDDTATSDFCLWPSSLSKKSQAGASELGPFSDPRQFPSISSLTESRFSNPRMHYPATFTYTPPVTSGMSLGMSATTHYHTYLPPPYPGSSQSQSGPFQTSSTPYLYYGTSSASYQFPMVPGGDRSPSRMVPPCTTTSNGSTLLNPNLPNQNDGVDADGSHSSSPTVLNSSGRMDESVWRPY
Runx2 (Runt-related transcription factor 2), full-length, myc- or flag-tagged: residues 80-607 of Q08775

binding [1] | binding [2] | Substance
binds | – | Runx2 (Runt-related transcription factor 2), full-length, myc- or flag-tagged (from UniProt Q08775-5 1-528)
– | binds | endogenous Runx2 protein of ATDC5 cells (from UniProt Q08775 1-607)

From PMC6546747
